Results as given in publication PMC4471195.
Results are given in words; binding and its absence hold for the method and conditions named. In cells and extracts the contact can be indirect. Some results given as binding are weak or reduced against the parent protein; the word gives no strength. Sequences can lack the tags named with a protein.

Sequences of proteins named here, by UniProt entry; tags and fusion partners are left off. Residues count along the entry.
UniProt Q9Y5K6: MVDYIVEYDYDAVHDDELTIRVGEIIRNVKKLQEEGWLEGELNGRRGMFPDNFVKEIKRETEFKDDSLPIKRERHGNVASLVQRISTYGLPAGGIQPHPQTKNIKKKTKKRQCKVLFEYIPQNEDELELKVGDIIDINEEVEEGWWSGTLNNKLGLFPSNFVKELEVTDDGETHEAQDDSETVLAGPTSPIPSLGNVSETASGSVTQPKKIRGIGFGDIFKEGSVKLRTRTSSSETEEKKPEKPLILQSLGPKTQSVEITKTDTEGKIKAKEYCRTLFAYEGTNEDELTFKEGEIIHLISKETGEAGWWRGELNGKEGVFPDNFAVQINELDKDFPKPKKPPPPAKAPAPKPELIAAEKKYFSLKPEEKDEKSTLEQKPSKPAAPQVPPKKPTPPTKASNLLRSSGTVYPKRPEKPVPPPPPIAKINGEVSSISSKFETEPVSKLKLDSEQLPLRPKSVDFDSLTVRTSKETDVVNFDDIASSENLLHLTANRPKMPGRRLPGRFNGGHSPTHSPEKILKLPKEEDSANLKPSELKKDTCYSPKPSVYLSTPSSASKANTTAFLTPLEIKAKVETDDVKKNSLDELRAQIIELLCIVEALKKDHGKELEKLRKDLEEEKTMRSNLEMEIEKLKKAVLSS
UniProt P55854, residues 1-92: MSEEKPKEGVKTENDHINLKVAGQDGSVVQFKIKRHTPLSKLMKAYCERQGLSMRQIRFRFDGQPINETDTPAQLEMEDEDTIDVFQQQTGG

T1: FLAG-tagged PIAS4 (UniProt Q8N2W9)
T1 sequence: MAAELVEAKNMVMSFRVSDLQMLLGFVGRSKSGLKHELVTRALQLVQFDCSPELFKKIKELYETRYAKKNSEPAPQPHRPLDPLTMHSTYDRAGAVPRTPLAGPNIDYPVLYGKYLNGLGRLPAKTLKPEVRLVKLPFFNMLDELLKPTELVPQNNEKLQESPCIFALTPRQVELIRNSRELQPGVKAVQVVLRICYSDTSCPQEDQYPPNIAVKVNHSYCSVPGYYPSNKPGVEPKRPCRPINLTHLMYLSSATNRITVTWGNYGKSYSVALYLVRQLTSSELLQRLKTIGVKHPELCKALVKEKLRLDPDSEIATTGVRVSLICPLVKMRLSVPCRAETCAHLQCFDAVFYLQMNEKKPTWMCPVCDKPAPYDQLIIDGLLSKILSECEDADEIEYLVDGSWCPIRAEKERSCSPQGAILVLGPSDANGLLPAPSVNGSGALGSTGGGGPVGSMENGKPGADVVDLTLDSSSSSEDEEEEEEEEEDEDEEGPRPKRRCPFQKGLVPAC

T2: V5-tagged PIAS4 (wheat germ cell-free system) (UniProt Q8N2W9)
T2 sequence: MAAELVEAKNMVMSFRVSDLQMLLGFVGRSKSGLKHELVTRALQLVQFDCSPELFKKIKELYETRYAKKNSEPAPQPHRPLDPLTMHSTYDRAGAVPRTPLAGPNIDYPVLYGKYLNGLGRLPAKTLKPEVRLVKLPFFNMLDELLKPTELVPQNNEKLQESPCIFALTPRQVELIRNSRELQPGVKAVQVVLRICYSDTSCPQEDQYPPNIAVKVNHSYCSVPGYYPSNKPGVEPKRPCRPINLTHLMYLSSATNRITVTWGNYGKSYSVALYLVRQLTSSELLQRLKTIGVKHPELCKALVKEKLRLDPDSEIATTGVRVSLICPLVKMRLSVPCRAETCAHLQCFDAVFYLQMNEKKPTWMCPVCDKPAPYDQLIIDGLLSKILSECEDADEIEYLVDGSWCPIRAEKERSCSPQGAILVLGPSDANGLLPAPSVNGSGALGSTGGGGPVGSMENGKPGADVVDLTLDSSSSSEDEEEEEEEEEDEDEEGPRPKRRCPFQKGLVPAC


Legend:
Flag-tagged CD2AP = Flag-tagged CD2AP (UniProt Q9Y5K6); assay: co-IP; transient co-expression in HEK 293T; lysis in 20 mM Tris pH 7.5, 1% Triton X-100, 50 mM NaCl, 50 mM NaF, 15 mM Na4P2O7, 0.1 mM EDTA; FLAG M2 sepharose beads, 2 h, 4°C; Western blot
FLAG-tagged PIAS4 = target: T1, FLAG-tagged PIAS4; assay: as above
His-tagged SUMO-3 = His-tagged SUMO-3 (UniProt P55854); assay: pull-down; His-tagged SUMO proteins co-transfected with V5-tagged proteins in HEK 293T, 36 h; Ni-NTA beads, non-denaturing conditions; anti-V5 blot
[1] = target: T2, V5-tagged PIAS4 (wheat germ cell-free system); assay: co-IP; proteins produced in the wheat germ cell-free system; V5-tagged proteins precipitated with V5 agarose beads; Western blot

| binding (Flag-tagged CD2AP) | binding (FLAG-tagged PIAS4) | binding (His-tagged SUMO-3) | binding [1] | Binder |
| --- | --- | --- | --- | --- |
| no binding | binds | binds |  | V5-tagged Glis2 (protein, UniProt Q9BZE0 1-524) MHSLDEPLDLKLSITKLRAAREKRERTLGVVRPRALHRELGLVDDSPTPGSPGSPPSGFLLNSKFPEKVEGRFSAAPLVDLSLSPPSGLDSPNGSSSLSPERQGNGDLPPVPSASDFQPLRYLDGVPSSFQFFLPLGSGGALHLPASSFLTPPKDKCLSPDLPLPKQLVCRWAKCNQLFELLQDLVDHVNDYHVKPEKDAGYCCHWEGCARHGRGFNARYKMLIHIRTHTNEKPHRCPTCSKSFSRLENLKIHNRSHTGEKPYVCPYEGCNKRYSNSSDRFKHTRTHYVDKPYYCKMPGCHKRYTDPSSLRKHIKAHGHFVSHEQQELLQLRPPPKPPLPAPDGGPYVSGAQIIIPNPAALFGGPGLPGLPLPLAPGPLDLSALACGNGGGSGGGGGMGPGLPGPVLPLNLAKNPLLPSPFGAGGLGLPVVSLLAGAAGGKAEGEKGRGSVPTRALGMEGHKTPLERTESSCSRPSPDGLPLLPGTVLDLSTGVNSAASSPEALAPGWVVIPPGSVLLKPAVVN |
|  |  |  | binds | FLAG-tagged Glis2 (wheat germ cell-free system) (protein, UniProt Q9BZE0 1-524) MHSLDEPLDLKLSITKLRAAREKRERTLGVVRPRALHRELGLVDDSPTPGSPGSPPSGFLLNSKFPEKVEGRFSAAPLVDLSLSPPSGLDSPNGSSSLSPERQGNGDLPPVPSASDFQPLRYLDGVPSSFQFFLPLGSGGALHLPASSFLTPPKDKCLSPDLPLPKQLVCRWAKCNQLFELLQDLVDHVNDYHVKPEKDAGYCCHWEGCARHGRGFNARYKMLIHIRTHTNEKPHRCPTCSKSFSRLENLKIHNRSHTGEKPYVCPYEGCNKRYSNSSDRFKHTRTHYVDKPYYCKMPGCHKRYTDPSSLRKHIKAHGHFVSHEQQELLQLRPPPKPPLPAPDGGPYVSGAQIIIPNPAALFGGPGLPGLPLPLAPGPLDLSALACGNGGGSGGGGGMGPGLPGPVLPLNLAKNPLLPSPFGAGGLGLPVVSLLAGAAGGKAEGEKGRGSVPTRALGMEGHKTPLERTESSCSRPSPDGLPLLPGTVLDLSTGVNSAASSPEALAPGWVVIPPGSVLLKPAVVN |
|  |  | no binding |  | V5-tagged NPHP2 (protein, UniProt Q9Y283 1-1065) MNKSENLLFAGSSLASQVHAAAVNGDKGALQRLIVGNSALKDKEDQFGRTPLMYCVLADRLDCADALLKAGADVNKTDHSQRTALHLAAQKGNYRFMKLLLTRRANWMQKDLEEMTPLHLTTRHRSPKCLALLLKFMAPGEVDTQDKNKQTALHWSAYYNNPEHVKLLIKHDSNIGIPDVEGKIPLHWAANHKDPSAVHTVRCILDAAPTESLLNWQDYEGRTPLHFAVADGNVTVVDVLTSYESCNITSYDNLFRTPLHWAALLGHAQIVHLLLERNKSGTIPSDSQGATPLHYAAQSNFAETVKVFLKHPSVKDDSDLEGRTSFMWAAGKGSDDVLRTMLSLKSDIDINMADKYGGTALHAAALSGHVSTVKLLLENNAQVDATDVMKHTPLFRACEMGHKDVIQTLIKGGARVDLVDQDGHSLLHWAALGGNADVCQILIENKINPNVQDYAGRTPLQCAAYGGYINCMAVLMENNADPNIQDKEGRTALHWSCNNGYLDAIKLLLDFAAFPNQMENNEERYTPLDYALLGERHEVIQFMLEHGALSIAAIQDIAAFKIQAVYKGYKVRKAFRDRKNLLMKHEQLRKDAAAKKREEENKRKEAEQQKGRRSPDSCRPQALPCLPSTQDVPSRQSRAPSKQPPAGNVAQGPEPRDSRGSPGGSLGGALQKEQHVSSDLQGTNSRRPNETAREHSKGQSACVHFRPNEGSDGSRHPGVPSVEKSRGETAGDERCAKGKGFVKQPSCIRVAGPDEKGEDSRRAAASLPPHDSHWKPSRRHDTEPKAKCAPQKRRTQELRGGRCSPAGSSRPGSARGEAVHAGQNPPHHRTPRNKVTQAKLTGGLYSHLPQSTEELRSGARRLETSTLSEDFQVSKETDPAPGPLSGQSVNIDLLPVELRLQIIQRERRRKELFRKKNKAAAVIQRAWRSYQLRKHLSHLRHMKQLGAGDVDRWRQESTALLLQVWRKELELKFPQTTAVSKAPKSPSKGTSGTKSTKHSVLKQIYGCSHEGKIHHPTRSVKASSVLRLNSVSNLQCIHLLENSGRSKNFSYNLQSATQPKNKTKP |
|  | no binding |  |  | V5-tagged Diversin (protein, UniProt Q9Y2G4 1-727) MSQQDAVAALSERLLVAAYKGQTENVVQLINKGARVAVTKHGRTPLHLAANKGHLPVVQILLKAGCDLDVQDDGDQTALHRATVVGNTEIIAALIHEGCALDRQDKDGNTALHEASWHGFSQSAKLLIKAGANVLAKNKAGNTALHLACQNSHSQSTRVLLLAGSRADLKNNAGDTCLHVAARYNHLSIIRLLLTAFCSVHEKNQAGDTALHVAAALNHKKVAKILLEAGADTTIVNNAGQTPLETARYHNNPEVALLLTKAPQVLRFSRGRSLRKKRERLKEERRAQSVPRDEVAQSKGSVSAGDTPSSEQAVARKEEAREEFLSASPEPRAKDDRRRKSRPKVSAFSDPTPPADQQPGHQKNLHAHNHPKKRNRHRCSSPPPPHEFRAYQLYTLYRGKDGKVMQAPINGCRCEPLINKLENQLEATVEEIKAELGSVQDKMNTKLGQMENKTQHQMRVLDKLMVERLSAERTECLNRLQQHSDTEKHEGEKRQISLVDELKTWCMLKIQNLEQKLSGDSRACRAKSTPSTCESSTGVDQLVVTAGPAAASDSSPPVVRPKEKALNSTATQRLQQELSSSDCTGSRLRNVKVQTALLPMNEAARSDQQAGPCVNRGTQTKKSGKSGPTRHRAQQPAASSTCGQPPPATGSEQTGPHIRDTSQALELTQYFFEAVSTQMEKWYERKIEEARSQANQKAQQDKATLKEHIKSLEEELAKLRTRVQKEN |
